Reference: PubChem BioAssay AID720505 (Drosophila RNAi Screening Center, 2013)
In all, the deposit lists about 20,000 reagents; shown is a random part of those that have a named target and a result. Over the whole deposit, about 2,100 (10%) are marked active. 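Raw plate signals without normalisation; calls rest on control-based scores that were not deposited; replicate 2 separates called from uncalled poorly.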 The numbers tell different reagents against one gene apart. A plus sign joins genes that one reagent is predicted to hit. Not stated in the record: the amount of reagent, the time to read-out.

Test: 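Knock-downs that reduce calcium influx once internal stores are emptied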 (primary screen)
Cell system: Drosophila S2R+ cells
Knock-down reagent: long dsRNA against Drosophila genes
Conditions: thapsigargin (2 µM) in calcium-free buffer to empty internal stores, then 2 mM calcium added back
Read-out: 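Fluo-4 signal in 384-well plates read on a FLIPR after thapsigargin (2 µM, calcium-free) store depletion and 2 mM calcium add-back; unnormalised mean endpoint per well; screen run twice, selected wells retested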
Reading the numbers: calcium signal and retest calcium signal: higher = more calcium entry after store depletion
Hit rule: 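About 1500 genes called as lowering calcium entry, by varying amounts, judged against per-plate control wells with STIM1 as positive and Rho1 as negative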
Meaning of the calls: active = called as lowering calcium entry; inactive = not called

Against eIF2Bbeta (GeneID 31256), the values are calcium signal, replicate 1 = 93.6; calcium signal, replicate 2 = 176; inactive.
CG33217 (GeneID 2768951) showed calcium signal, replicate 1 = 118; calcium signal, replicate 2 = 147; inactive.
CG12470 (GeneID 30977) showed calcium signal, replicate 1 = 122; calcium signal, replicate 2 = 116; inactive.
For rump (GeneID 41138) the deposit lists calcium signal, replicate 1 = 97.2; calcium signal, replicate 2 = 158; inactive.
Silencing of Prosalpha7 (GeneID 36018) resulted in: calcium signal, replicate 1 = 128; calcium signal, replicate 2 = 112; active.
Against CG9062 (GeneID 36199), the entry reads calcium signal, replicate 1 = 107; calcium signal, replicate 2 = 126; inactive.
Against CG44836 (GeneID 39825) the deposit lists calcium signal, replicate 1 = 87.3; calcium signal, replicate 2 = 174; inactive.
Depletion of CG33635 (GeneID 3772540) gave: calcium signal, replicate 1 = 63.4; calcium signal, replicate 2 = 71.3; active.
mRpL42 (GeneID 36050) gave calcium signal, replicate 1 = 111; calcium signal, replicate 2 = 87; inactive.
Tim17b1 (GeneID 40635) showed calcium signal, replicate 1 = 107; calcium signal, replicate 2 = 156; inactive.
With knock-down of CG8006 (GeneID 38920), the record shows calcium signal, replicate 1 = 96; calcium signal, replicate 2 = 135; inactive.
For CG33775 (GeneID 3772054), the entry reads calcium signal, replicate 1 = 112; calcium signal, replicate 2 = 145; inactive.
With knock-down of CG13581 (GeneID 37911), the record shows calcium signal, replicate 1 = 111; calcium signal, replicate 2 = 166; inactive.
For woc (GeneID 47249) the deposit lists calcium signal, replicate 1 = 113; calcium signal, replicate 2 = 139; inactive.
Knock-down of CG30403 (GeneID 246595) came out at: calcium signal, replicate 1 = 119; calcium signal, replicate 2 = 124; retest calcium signal, replicate 1 = 172; retest calcium signal, replicate 2 = 134; inactive.
Depletion of Nop17l (GeneID 35730) came out at: calcium signal, replicate 1 = 157; calcium signal, replicate 2 = 157; inactive.
With knock-down of CG30062 (GeneID 246428), the screen gave calcium signal, replicate 1 = 118; calcium signal, replicate 2 = 129; inactive.
For CG10222 (GeneID 39504), the entry reads calcium signal, replicate 1 = 88.2; calcium signal, replicate 2 = 76.5; inactive.
CG14613 (GeneID 33133) showed calcium signal, replicate 1 = 166; calcium signal, replicate 2 = 112; inactive.
After knock-down of CG15423 (GeneID 33616), the record shows calcium signal, replicate 1 = 192; calcium signal, replicate 2 = 78.2; inactive.
CG4558 (GeneID 31631) scored calcium signal, replicate 1 = 149; calcium signal, replicate 2 = 103; inactive.
For Dhx15 (GeneID 35654), the values are calcium signal, replicate 1 = 220; calcium signal, replicate 2 = 82.8; inactive.
Knock-down of CG14247 (GeneID 43221) came out at: calcium signal, replicate 1 = 135; calcium signal, replicate 2 = 96.1; inactive.
After knock-down of mRpS18C (GeneID 43609), the record shows calcium signal, replicate 1 = 126; calcium signal, replicate 2 = 125; inactive.
CG7789 (GeneID 43516) gave calcium signal, replicate 1 = 104; calcium signal, replicate 2 = 144; inactive.
Knock-down of CG32640 + CG32641 came out at: calcium signal, replicate 1 = 135; calcium signal, replicate 2 = 188; inactive.
Against Eig71Ef (GeneID 39707), the entry reads calcium signal, replicate 1 = 129; calcium signal, replicate 2 = 134; inactive.
With knock-down of jigr1 (GeneID 43093) #1, the screen gave calcium signal, replicate 1 = 114; calcium signal, replicate 2 = 124; inactive.
jigr1 (GeneID 43093) #2 scored calcium signal, replicate 1 = 93; calcium signal, replicate 2 = 244; inactive.
After knock-down of Dyro (GeneID 39271), the record shows calcium signal, replicate 1 = 63.9; calcium signal, replicate 2 = 105; active.
CG32486 (GeneID 38367) #1 gave calcium signal, replicate 1 = 68.2; calcium signal, replicate 2 = 94.7; active.
With knock-down of CG32486 (GeneID 38367) #2, the screen gave calcium signal, replicate 1 = 95.7; calcium signal, replicate 2 = 92.8; inactive.
betaTub85D (GeneID 41124) scored calcium signal, replicate 1 = 56.7; calcium signal, replicate 2 = 81.2; active.
CG30345 (GeneID 246553) gave calcium signal, replicate 1 = 81.7; calcium signal, replicate 2 = 95.6; inactive.
Men (GeneID 47173) #1 scored active.
For Men (GeneID 47173) #2, the entry reads calcium signal, replicate 1 = 184; calcium signal, replicate 2 = 76.5; retest calcium signal, replicate 1 = 10685; retest calcium signal, replicate 2 = 164; inactive.
Men (GeneID 47173) #3 scored calcium signal, replicate 1 = 69.8; calcium signal, replicate 2 = 149; inactive.

Copied from the entries so far for reference:
CG8006 (GeneID 38920) | calcium signal, replicate 1: 96; calcium signal, replicate 2: 135; outcome: inactive
CG33775 (GeneID 3772054) | calcium signal, replicate 1: 112; calcium signal, replicate 2: 145; outcome: inactive
